{"sequences": {"note": "Chains of the proteins cited; added tags and fusions are not shown. Residues count along the entry.", "UniProt P03454, residues 18-565": "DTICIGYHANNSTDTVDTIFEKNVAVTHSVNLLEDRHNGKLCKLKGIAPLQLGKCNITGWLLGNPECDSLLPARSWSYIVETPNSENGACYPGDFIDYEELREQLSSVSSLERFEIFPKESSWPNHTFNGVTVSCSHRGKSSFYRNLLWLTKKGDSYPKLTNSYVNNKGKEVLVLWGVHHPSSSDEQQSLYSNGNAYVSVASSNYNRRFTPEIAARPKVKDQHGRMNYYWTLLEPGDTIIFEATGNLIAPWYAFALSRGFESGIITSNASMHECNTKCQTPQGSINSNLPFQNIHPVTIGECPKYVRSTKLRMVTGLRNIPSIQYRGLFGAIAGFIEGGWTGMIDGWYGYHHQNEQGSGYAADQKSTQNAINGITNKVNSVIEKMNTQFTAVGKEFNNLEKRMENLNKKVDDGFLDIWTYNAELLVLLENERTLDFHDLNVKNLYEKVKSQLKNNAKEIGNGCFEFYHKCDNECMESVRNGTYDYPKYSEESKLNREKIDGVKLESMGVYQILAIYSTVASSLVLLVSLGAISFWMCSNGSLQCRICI"}, "source": "patent US20110076265A1", "biological_target": "H1-subtype hemagglutinin of influenza A virus A/Wilson-Smith/33 (influenza A virus A/Wilson-Smith/33 (H1N1)) (UniProt P03454)", "note": "Results are given in words; binding and its absence hold for the method and conditions named. Some binding calls cover weakened binding; strength is not graded here.", "data": [{"binder": "IgG antibodies produced by the EBV-transformed human B cell clone cINF49 (antibody, V domains shown) VH: LESGGGLVQPGGSLRLSCAASGITFSSYAMSWVRQAPGKGLEWVSTVNSGGGSTYYGDSVRGRFTISRDNSKSTLYLQLNSLRAEDTAIYYCAKDKGRPIFGLVTPSYYMDVWGNGT VL: ELTQSPSSLSASVGDSVTITCRTSERISTYLNWYQQKPGKAPRLLVSGASTLQGGVPSRFSGSGSGTAFTLTINSLQPEDFATYYCQQSYSTPLTFGGGT", "values": [{"measurement": "binding", "value": "binds"}]}]}
